The record followed here is PMC6823460.

Assay [1] addresses full-length VEGFA (Met1–Arg147), pGilda (LexA) fusion (human) (UniProt P15692). Nature of the assay: two-hybrid; library screen, Matchmaker LexA system in EGY48 yeast; VEGFA bait in pGilda, human embryonic ovary cDNA library as prey in pB42AD.
Assay [2] has as its target C-terminal VEGFA (Asn101–Arg147), two-hybrid fusion (human) (UniProt P15692). The assay can be described thus: two-hybrid; Matchmaker LexA system, bait and prey vectors co-transformed in EGY48 yeast; growth for 3 days at 30 °C on leucine-depleted medium, blue colonies on X-gal, ONPG β-galactosidase activity.
The target of assay [3] is full-length VEGFA (Met1–Arg147), pGilda (LexA) fusion (human) (UniProt P15692). The assay is described as above.

No constants are given. Whether binding was seen depends on the method and setting. Some results given as binding are weak or reduced against the parent protein; the word gives no strength. For some assays here: Tags and fused reporters may be left off the sequences shown.

B1: calpain-6 (279–523), clone isolated from the yeast two-hybrid screen (domain or fragment, UniProt Q9Y6Q1 279-523)
chain: MVRLRNPLGRQEWSGPWSEISEEWQQLTASDRKNLGLVMSDDGEFWMSLEDFCRNFHKLNVCRNVNNPIFGRKELESVLGCWTVDDDPLMNRSGGCYNNRDTFLQNPQYIFTVPEDGHKVIMSLQQKDLRTYRRMGRPDNYIIGFELFKVEMNRKFRLHHLYIQERAGTSTYIDTRTVFLSKYLKKGNYVLVPTMFQHGRTSEFLLRIFSEVPVQLRELTLDMPKMSCWNLARGYPKVVTQITVH
Regarding B1, the binding entry in assay [1] is “binds”.

B2: full-length calpain-6 (1–641), pB42AD fusion (protein, UniProt Q9Y6Q1 1-641)
chain: MGPPLKLFKNQKYQELKQECIKDSRLFCDPTFLPENDSLFYNRLLPGKVVWKRPQDICDDPHLIVGNISNHQLTQGRLGHKPMVSAFSCLAVQESHWTKTIPNHKEQEWDPQKTEKYAGIFHFRFWHFGEWTEVVIDDLLPTINGDLVFSFSTSMNEFWNALLEKAYAKLLGCYEALDGLTITDIIVDFTGTLAETVDMQKGRYTELVEEKYKLFGELYKTFTKGGLICCSIESPNQEEQEVETDWGLLKGHTYTMTDIRKIRLGERLVEVFSAEKVYMVRLRNPLGRQEWSGPWSEISEEWQQLTASDRKNLGLVMSDDGEFWMSLEDFCRNFHKLNVCRNVNNPIFGRKELESVLGCWTVDDDPLMNRSGGCYNNRDTFLQNPQYIFTVPEDGHKVIMSLQQKDLRTYRRMGRPDNYIIGFELFKVEMNRKFRLHHLYIQERAGTSTYIDTRTVFLSKYLKKGNYVLVPTMFQHGRTSEFLLRIFSEVPVQLRELTLDMPKMSCWNLARGYPKVVTQITVHSAEDLEKKYANETVNPYLVIKCGKEEVRSPVQKNTVHAIFDTQAIFYRRTTDIPIIVQVWNSRKFCDQFLGQVTLDADPSDCRDLKSLYLRKKGGPTAKVKQGHISFKVISSDDLTEL
In the case of B2, the binding result in assay [2] and in assay [3] was “binds” throughout.

B3: calpain-6 domain III (Gly321–Asp500), two-hybrid fusion (domain or fragment, UniProt Q9Y6Q1 321-500)
chain: GEFWMSLEDFCRNFHKLNVCRNVNNPIFGRKELESVLGCWTVDDDPLMNRSGGCYNNRDTFLQNPQYIFTVPEDGHKVIMSLQQKDLRTYRRMGRPDNYIIGFELFKVEMNRKFRLHHLYIQERAGTSTYIDTRTVFLSKYLKKGNYVLVPTMFQHGRTSEFLLRIFSEVPVQLRELTLD
With B3, the binding entry in assay [2] and in assay [3] was “binds” each time.
